Test results as given in PubChem BioAssay AID330 (DTP/NCI, 2004).
The list does not hold the whole screen: it gathers tests that were run many times, whatever their T/C, doses with no T/C, and many T/C values between a quarter and a half above the control. Other doses and runs of a compound stand elsewhere. T/C: endpoint of the treated group in % of that of the vehicle group. Some entries give survivors of the animals treated and no T/C: the source files T/C as zero there, which appears to mark a toxic dose or a test without result, not a measured value. Some doses without a T/C left all or most animals alive at the check, yet need not have been tolerated: survival well below the control is almost never listed, so the zero probably covers shortened survival too. Survivors were counted at the toxicity check, usually on the fifth day, unless a day is given; later deaths do not show. Schedule codes are those of the source, read here as Q, the interval in days (D) or hours (H), X, the number of doses. Some entries hold several experiments; their values stand side by side, smallest first. Where survival is the endpoint, this PubChem deposit counts one and a half times the control or more as active, and values a quarter to a half above the control carry no call in these data; other NCI protocols may use other cut-offs. Some T/C values are followed by the survivors on the day toxicity was checked, most often the fifth; where none is given, no animal had died by that day.

Tested on: P388 leukemia ip, CD2F1 mice, survival T/C
Experiment: NCI In Vivo Anticancer Drug Screen. Data for tumor model P388 Leukemia (intraperitoneal) in CD2F1 (CDF1) mice
Conditions: T/C endpoint: median survival time, higher T/C = longer survival
[1] = dose: 50.0 mg/kg/injection, schedule: Q01DX009 (ip), vehicle: distilled water + Tween-80
[2] = dose: 100.0 mg/kg/injection, schedule: Q01DX009 (ip), vehicle: distilled water + Tween-80
[3] = dose: 50.0 mg/kg/injection, schedule: Q01DX005 (ip), vehicle: saline with Tween-80
[4] = dose: 200.0 mg/kg/injection, schedule: Q01DX005 (ip), vehicle: saline with Tween-80
[5] = dose: 120.0 mg/kg/injection, schedule: Q01DX005 (ip), vehicle: saline with Tween-80
[6] = dose: 200.0 mg/kg/injection, schedule: Q01DX005 (ip), vehicle: saline
[7] = dose: 240.0 mg/kg/injection, schedule: Q01DX005 (ip), vehicle: saline with Tween-80
[8] = dose: 15.0 mg/kg/injection, schedule: Q01DX005 (ip), vehicle: Klucel (hydroxypropylcellulose) (HPC)
[9] = dose: 30.0 mg/kg/injection, schedule: Q01DX005 (ip), vehicle: Klucel (hydroxypropylcellulose) (HPC)
[10] = dose: 60.0 mg/kg/injection, schedule: Q01DX005 (ip), vehicle: Klucel (hydroxypropylcellulose) (HPC)
[11] = dose: 120.0 mg/kg/injection, schedule: Q01DX005 (ip), vehicle: Klucel (hydroxypropylcellulose) (HPC)
[12] = dose: 240.0 mg/kg/injection, schedule: Q01DX005 (ip), vehicle: Klucel (hydroxypropylcellulose) (HPC)
[13] = dose: 200.0 mg/kg/injection, schedule: Q04DX003 (ip), vehicle: Klucel (hydroxypropylcellulose) (HPC)
[14] = dose: 16.0 mg/kg/injection, schedule: Q01DX001 (ip), vehicle: water
[15] = dose: 10.0 mg/kg/injection, schedule: Q01DX009 (ip), vehicle: Klucel (hydroxypropylcellulose) (HPC)
[16] = dose: 2.5 mg/kg/injection, schedule: Q01DX009 (ip), vehicle: Klucel (hydroxypropylcellulose) (HPC)

For `CC(=O)NCc1cc(C)c(CCl)cc1CCl`, the survivor count (dose: 25.0 mg/kg/injection, schedule: Q01DX009 (ip), vehicle: distilled water + Tween-80) was 3 of 3, the survivor count [1] was 0 of 3 and 3 of 6 and the survivor count [2] was 0 of 3.

With `CCN(CC)c1ccc2[nH]c3c(C(N)=O)cc(=O)c(=O)c=3oc2c1` the T/C [3] was 137 % of control and the survivor count [4] was 1 of 5.

`COc1ccc([N+](=O)[O-])cc1NC(=O)c1ccc2c(c1)C(=O)OC2=O` was tested, and the survivor count (dose: 60.0 mg/kg/injection, schedule: Q01DX005 (ip), vehicle: saline with Tween-80) was 5 of 6 and the survivor count [5] was 5 of 6 and 6 of 6.

In the case of `COC(=O)C(=C(C)C)S(=O)c1ccccc1` (stereo unspecified), the survivor count (dose: 100.0 mg/kg/injection, schedule: Q01DX005 (ip), vehicle: saline) is reported as 1 of 6 and the survivor count [6] is reported as 0 of 6.

For `C/C=C/C=C\C(=O)O`, the survivor count (dose: 50.0 mg/kg/injection, schedule: Q01DX009 (ip), vehicle: saline with Tween-80) was 4 of 6 and the survivor count (dose: 100.0 mg/kg/injection, schedule: Q01DX009 (ip), vehicle: saline with Tween-80) was 6 of 6.

`CSC(=C[N+](=O)[O-])SC` was tested, and the survivor count (dose: 50.0 mg/kg/injection, schedule: Q01DX009 (ip), vehicle: water) was 3 of 6.

For `CSc1nc(NC2OC(CO)C(O)C(O)C2O)c(Cl)c(=O)n1C` (stereo unspecified), the survivor count [7] was 2 of 6.

`COS(=O)(=O)N(C)c1nc(N(C)C)nc(N(C)C)n1` was tested, and the survivor count [6] was 6 of 6.

In the case of `c1cc(C2N3CCCN2CC3)ccn1` (stereo unspecified), the survivor count (dose: 6.25 mg/kg/injection, schedule: Q01DX009 (ip), vehicle: saline) is reported as 6 of 6.

`Cc1c2cc[n+](C)cc2c(COC2OC(CO)C(O)C2O)c2c3ccccc3n(C)c12` (stereo unspecified) was tested, and the T/C [8] was 127 % of control, the T/C [9] was 125 % of control [5 of 6 alive] and the T/C [10] was 145 % of control [4 of 6 alive]. The T/C [11] was 141 % of control, the survivor count [11] was 0 of 6 and the survivor count [12] was 2 of 6.

With `CC(=O)Nc1nc(C)c(CCCNS(=O)(=O)c2ccc([N+](=O)[O-])cc2)c(=O)[nH]1` the survivor count [5] was 6 of 6 and the survivor count [7] was 6 of 6.

For `N#CC(OC(=O)c1ccccc1)C(OC(=O)c1ccccc1)C(OC(=O)c1ccccc1)C(COC(=O)c1ccccc1)OC(=O)c1ccccc1` (stereo unspecified), the survivor count [3] was 5 of 5, the survivor count (dose: 100.0 mg/kg/injection, schedule: Q01DX005 (ip), vehicle: saline with Tween-80) was 5 of 5 and the survivor count [4] was 5 of 5.

In the case of `COc1cc2c(c(OC)c1OC)C(=O)CCC2`, the survivor count [13] is reported as 6 of 6.

For `COc1ccc(-n2cc[n+](C)c2/C=N\O)cc1`, the survivor count (dose: 200.0 mg/kg/injection, schedule: Q01DX009 (ip), vehicle: saline with Tween-80) was 0 of 6.

In the case of `COC(C(=O)C(O)C(C)O)C1CC2C=C3C=C(OC4CC(OC5CC(O)C(OC)C(C)O5)C(OC(C)=O)C(C)O4)C(C)C(=O)C3=C(O)C2=C(O)C1OC1CC(OC2CC(OC3CC(C)(O)C(O)C(C)O3)C(O)C(C)O2)C(O)C(C)O1` (stereo unspecified), the T/C (dose: 4.0 mg/kg/injection, schedule: Q01DX001 (ip), vehicle: water, evaluated on day 35) is reported as 126 % of control, the T/C (dose: 4.0 mg/kg/injection, schedule: Q01DX001 (ip), vehicle: water, evaluated on day 45) is reported as 134 % of control and the T/C (dose: 8.0 mg/kg/injection, schedule: Q01DX001 (ip), vehicle: water) is reported as 136 % of control. The T/C [14] was 145 % of control [4 of 6 alive], the survivor count [14] was 0 of 6 and the survivor count (dose: 32.0 mg/kg/injection, schedule: Q01DX001 (ip), vehicle: water) was 0 of 6. The survivor count (dose: 64.0 mg/kg/injection, schedule: Q01DX001 (ip), vehicle: water) was 0 of 6.

With `c1csc(-c2[nH]nc3c2CCc2ccccc2-3)c1` the T/C (dose: 7.5 mg/kg/injection, schedule: Q01DX005 (ip), vehicle: Klucel (hydroxypropylcellulose) (HPC)) was 125 % of control, the survivor count [8] was 6 of 6 and the survivor count [9] was 3 of 6. For the same molecule, the survivor count [10] was 6 of 6, the survivor count [11] was 3 of 6 and the survivor count [12] was 1 of 6.

For `O=C1c2c(O)ccc(O)c2C(=O)c2c(NCCCCCO)ccc(NCCCCCO)c21`, the survivor count [15] was 6 of 6.

`C=C(Cl)C(=NC(C)(C)C)N(CC)CC` was tested, and the survivor count (dose: 100.0 mg/kg/injection, schedule: Q01DX005 (ip), vehicle: Klucel (hydroxypropylcellulose) (HPC)) was 1 of 5 and the survivor count (dose: 200.0 mg/kg/injection, schedule: Q01DX005 (ip), vehicle: Klucel (hydroxypropylcellulose) (HPC)) was 0 of 5.

With `O=C(NC1CC1)OCc1c(COC(=O)NC2CC2)c(-c2ccc(Cl)c(Cl)c2)n2c1CCC2` the T/C (dose: 1.56 mg/kg/injection, schedule: Q01DX009 (ip), vehicle: distilled water + Tween-80) was 135 % of control, the T/C (dose: 3.13 mg/kg/injection, schedule: Q01DX009 (ip), vehicle: distilled water + Tween-80) was 144 % of control and the T/C (dose: 6.25 mg/kg/injection, schedule: Q01DX009 (ip), vehicle: distilled water + Tween-80) was 148 % of control. For the same molecule, the survivor count [1] was 5 of 6 and 6 of 6, the survivor count [2] was 2 of 6 and the survivor count (dose: 200.0 mg/kg/injection, schedule: Q01DX009 (ip), vehicle: distilled water + Tween-80) was 1 of 6.

In the case of `Cc1ccccc1N1C(=O)[N+](C)(C)N=C1[O-]`, the T/C (dose: 400.0 mg/kg/injection, schedule: Q04DX003 (ip), vehicle: saline) is reported as 125 % of control.

With `CC(C)CNN(CC(C)C)C(N)=O` the survivor count (dose: 400.0 mg/kg/injection, schedule: Q01DX009 (ip), vehicle: saline with Tween-80) was 3 of 6.

With `Cc1ccc(S(=O)(=O)CN(CN2C(=O)CCC2=O)c2ccc(Cl)cc2)cc1` the survivor count [11] was 6 of 6.

In the case of `COc1cc2c(c(OC)c1OC)-c1ccc(OC)c(=O)cc1[C@@H](N(C)C=O)CC2`, the T/C (dose: 0.62 mg/kg/injection, schedule: Q01DX009 (ip), vehicle: Klucel (hydroxypropylcellulose) (HPC)) is reported as 137 % of control, the T/C (dose: 1.25 mg/kg/injection, schedule: Q01DX009 (ip), vehicle: Klucel (hydroxypropylcellulose) (HPC)) is reported as 128 % of control and the T/C [16] is reported as 140 % of control. The survivor count [16] was 4 of 6, the survivor count (dose: 5.0 mg/kg/injection, schedule: Q01DX009 (ip), vehicle: Klucel (hydroxypropylcellulose) (HPC)) was 4 of 6 and 6 of 6 and the survivor count [15] was 4 of 6. The survivor count (dose: 20.0 mg/kg/injection, schedule: Q01DX009 (ip), vehicle: Klucel (hydroxypropylcellulose) (HPC)) was 4 of 6.

With `CNC(=S)c1cccc(-c2ccccn2)n1` the survivor count (dose: 100.0 mg/kg/injection, schedule: Q04DX003 (ip), vehicle: Klucel (hydroxypropylcellulose) (HPC)) was 6 of 6 and the survivor count [13] was 3 of 6.

`CC[C@@]1(O)C(=O)OCc2c1cc1n(c2=O)Cc2cc3cc(OC)ccc3nc2-1` was tested, and the T/C (dose: 0.39 mg/kg/injection, schedule: Q04DX003 (ip), vehicle: other) was 127 % of control, the T/C (dose: 0.79 mg/kg/injection, schedule: Q04DX003 (ip), vehicle: other) was 138 % of control and the survivor count (dose: 6.25 mg/kg/injection, schedule: Q04DX003 (ip), vehicle: other) was 6 of 6. The survivor count (dose: 12.5 mg/kg/injection, schedule: Q04DX003 (ip), vehicle: other) was 3 of 6.

With `O=C1C=CC(=O)c2c(O)c3c(c(O)c21)C[C@H](O)[C@H](O)[C@@H]3O` the survivor count (dose: 12.5 mg/kg/injection, schedule: Q04DX003 (ip), vehicle: water) was 0 of 6, the survivor count (dose: 25.0 mg/kg/injection, schedule: Q04DX003 (ip), vehicle: water) was 0 of 6 and the survivor count (dose: 50.0 mg/kg/injection, schedule: Q04DX003 (ip), vehicle: water) was 0 of 6. For the same molecule, the survivor count (dose: 100.0 mg/kg/injection, schedule: Q04DX003 (ip), vehicle: water) was 0 of 6 and the survivor count (dose: 200.0 mg/kg/injection, schedule: Q04DX003 (ip), vehicle: water) was 0 of 6.
